Measured values published in paper PMC3454408.
Results are given in words; binding and its absence hold for the method and conditions named. For some assays here: In cells and extracts the contact can be indirect. Some binding calls cover weakened binding; strength is not graded here. Sequences can lack the tags named with a protein.

Protein sequences, listed by entry. Tags and fused reporters are not part of them.
UniProt P32639: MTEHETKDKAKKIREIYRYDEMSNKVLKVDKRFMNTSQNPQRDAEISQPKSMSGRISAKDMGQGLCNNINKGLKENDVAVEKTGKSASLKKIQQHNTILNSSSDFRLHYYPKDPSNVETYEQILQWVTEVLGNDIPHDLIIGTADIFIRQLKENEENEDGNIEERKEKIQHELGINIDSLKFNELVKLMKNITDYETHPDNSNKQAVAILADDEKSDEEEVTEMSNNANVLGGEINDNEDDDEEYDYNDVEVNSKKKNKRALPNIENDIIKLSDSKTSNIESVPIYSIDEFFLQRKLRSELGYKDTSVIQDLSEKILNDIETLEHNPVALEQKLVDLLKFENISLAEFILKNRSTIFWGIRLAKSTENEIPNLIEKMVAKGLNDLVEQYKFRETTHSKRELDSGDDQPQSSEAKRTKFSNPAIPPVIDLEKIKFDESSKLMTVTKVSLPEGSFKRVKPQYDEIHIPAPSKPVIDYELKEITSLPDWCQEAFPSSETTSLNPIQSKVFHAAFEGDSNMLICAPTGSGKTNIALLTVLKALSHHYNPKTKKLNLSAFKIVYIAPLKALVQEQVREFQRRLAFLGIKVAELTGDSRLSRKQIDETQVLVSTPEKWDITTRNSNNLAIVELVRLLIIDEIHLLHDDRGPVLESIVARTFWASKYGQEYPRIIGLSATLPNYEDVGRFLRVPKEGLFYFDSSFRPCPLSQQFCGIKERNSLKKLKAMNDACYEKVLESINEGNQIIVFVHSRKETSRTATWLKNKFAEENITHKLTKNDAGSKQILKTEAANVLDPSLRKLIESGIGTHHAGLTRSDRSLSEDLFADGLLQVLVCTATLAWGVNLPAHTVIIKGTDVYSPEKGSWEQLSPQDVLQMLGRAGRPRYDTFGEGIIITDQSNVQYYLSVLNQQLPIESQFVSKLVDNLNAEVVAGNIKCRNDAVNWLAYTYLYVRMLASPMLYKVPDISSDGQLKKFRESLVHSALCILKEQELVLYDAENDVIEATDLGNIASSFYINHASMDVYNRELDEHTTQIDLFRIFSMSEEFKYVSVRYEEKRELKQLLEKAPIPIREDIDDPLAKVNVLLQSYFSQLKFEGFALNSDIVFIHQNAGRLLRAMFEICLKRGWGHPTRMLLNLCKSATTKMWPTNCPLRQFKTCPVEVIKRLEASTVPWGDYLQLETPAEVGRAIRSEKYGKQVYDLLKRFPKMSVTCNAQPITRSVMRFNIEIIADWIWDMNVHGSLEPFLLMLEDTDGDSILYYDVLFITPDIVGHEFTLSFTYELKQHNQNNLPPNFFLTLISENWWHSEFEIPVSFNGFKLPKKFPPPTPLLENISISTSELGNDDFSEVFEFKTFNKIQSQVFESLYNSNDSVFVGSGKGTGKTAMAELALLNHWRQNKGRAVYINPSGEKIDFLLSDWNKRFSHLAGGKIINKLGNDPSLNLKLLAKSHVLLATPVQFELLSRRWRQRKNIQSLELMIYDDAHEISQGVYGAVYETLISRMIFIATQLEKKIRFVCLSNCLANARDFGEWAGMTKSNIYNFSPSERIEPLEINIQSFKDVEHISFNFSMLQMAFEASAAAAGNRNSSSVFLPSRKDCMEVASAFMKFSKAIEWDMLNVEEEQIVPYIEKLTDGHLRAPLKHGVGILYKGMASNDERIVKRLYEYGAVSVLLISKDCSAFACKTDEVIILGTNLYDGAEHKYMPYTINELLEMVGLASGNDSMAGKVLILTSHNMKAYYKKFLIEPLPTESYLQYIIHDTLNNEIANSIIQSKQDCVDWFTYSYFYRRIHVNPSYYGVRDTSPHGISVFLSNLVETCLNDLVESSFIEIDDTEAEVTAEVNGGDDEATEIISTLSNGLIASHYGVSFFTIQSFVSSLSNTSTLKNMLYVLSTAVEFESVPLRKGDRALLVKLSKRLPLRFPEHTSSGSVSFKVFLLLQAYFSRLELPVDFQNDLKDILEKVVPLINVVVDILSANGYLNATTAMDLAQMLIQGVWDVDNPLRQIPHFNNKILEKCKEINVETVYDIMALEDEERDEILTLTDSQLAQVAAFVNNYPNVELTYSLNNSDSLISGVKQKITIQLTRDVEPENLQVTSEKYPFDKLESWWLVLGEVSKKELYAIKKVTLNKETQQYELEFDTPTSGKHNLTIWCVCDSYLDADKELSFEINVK

How the values were obtained:
[1] = biological target: Brr2p (yeast two-hybrid fusion) (S. cerevisiae) (UniProt P32639); assay: two-hybrid; yeast two-hybrid assay of Cwc24p with spliceosome proteins; data not shown
[2] = biological target: TAP-Brr2p (S. cerevisiae) (UniProt P32639); assay: pull-down; TAP-Brr2p from yeast extract immobilised on IgG-sepharose (2 h, 4°C), washed 4 times with AGK + 400 mM KCl, incubated with purified His-Cwc24 for 2 h at 4°C, washed 3 times with AGK (10 mM HEPES pH 7.9, 1.5 mM MgCl2, 200 mM KCl, 10% glycerol, 0.5 mM DTT); western blot with anti-his antibody; only the binder purified

| Binder | binding [1] | binding [2] |
| --- | --- | --- |
| Cwc24p (yeast two-hybrid fusion) (protein, UniProt P53769 1-259) MFRKRLVNKSSSDEKNQKKRQKINFSEEKLVASDEEKGSSDLMSLAKSGNSRTLQLSHENEGKLQKKGEDLDKYTLTVNDDSTKEDLLNFERKELAEKAKKRRPSDDNELVLNMSGKNKRLTKQINQPTNIRTTVLMDFQPDVCKDYKQTGYCGYGDSCKFLHSRDDFKTGWKLNQEWNADKEDSKAVTLDLEKIPFKCTLCKEDYKSPVVTNCGHYFCGSCFAKDMKKGTKCFICHKETHGSAKVASDLQKMLNKRKS | binds | – |
| His-Cwc24p (protein, UniProt P53769 1-259) MFRKRLVNKSSSDEKNQKKRQKINFSEEKLVASDEEKGSSDLMSLAKSGNSRTLQLSHENEGKLQKKGEDLDKYTLTVNDDSTKEDLLNFERKELAEKAKKRRPSDDNELVLNMSGKNKRLTKQINQPTNIRTTVLMDFQPDVCKDYKQTGYCGYGDSCKFLHSRDDFKTGWKLNQEWNADKEDSKAVTLDLEKIPFKCTLCKEDYKSPVVTNCGHYFCGSCFAKDMKKGTKCFICHKETHGSAKVASDLQKMLNKRKS | – | binds |
